Values quoted from earlier work as cited in patent publication US7772273B2 (LifeCycle Pharma A/S, priority 2006, dated 2010).

Key:
[1] = At pH>6

CC(C)c1c(C(=O)Nc2ccccc2)c(-c2ccccc2)c(-c2ccc(F)cc2)n1CCC(O)CC(O)CC(=O)O (stereo not drawn) [atorvastatin, 2-(4-fluorophenyl)-β,δ-dihydroxy-5-(1-methylethyl)-3-phenyl-4-[(phenylamino)carbonyl]-1H-pyrrole-1-heptanoic acid]
Lowering of plasma atorvastatin concentrations (Cmax and AUC) (evening drug administration compared with morning): approximately 30% | Decrease of extent of drug absorption by food, as assessed by AUC (with food): ~9% | Decrease of rate of drug absorption by food, as assessed by Cmax (with food): approximately 25% | Hydroxy acid form-lactone form equilibrium [1]: greatly favors the hydroxy acid form
